Record: PubChem BioAssay AID504764 (Drosophila RNAi Screening Center, 2011)

Test: 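Knock-downs that raise or lower a Notch target reporter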 (primary screen)
System: Drosophila Kc167 cells
Reagents: long dsRNA against Drosophila genes
Time to read-out: about 5 days (4 days dsRNA, then 24 h after transfection)
Conditions: transfection of constitutively active membrane-tethered Notch lacking the extracellular domain, read 24 h later
Measured: 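Firefly luciferase from an E(spl)m3 reporter with active Notch, plus control-promoter and uninduced reporter wells for normalisation; unnormalised counts, duplicate wells a and b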
Direction: induced reporter light, run 1, well a and induced reporter light, run 1, well b: higher = more light from the Notch target reporter with active Notch; control promoter light, run 1, well a and control promoter light, run 1, well b: higher = more light from the viral control promoter (cell number, transfection, viability); uninduced reporter light, run 1, well a: higher = more light from the Notch target reporter without active Notch
Hit rule: 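Hit if the duplicate-averaged log2 ratio of induced to control-promoter light gives a plate-wise z beyond ±2, or induced to uninduced beyond ±1.8; weak-control or discordant-duplicate wells dropped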
Meaning of the calls: active = modifier hit (raised or lowered Notch signal); inactive = not a hit
The screen tested about 22,000 reagents; shown is an unselected part of those with a known target gene and a result. Over the whole deposit, 403 (1.9%) are marked active. 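Unnormalised raw counts per well; ratio z-scores behind the hit calls and whether each hit raises or lowers signal are not deposited.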 A plus sign joins genes that one reagent is predicted to hit. Not given: the amount of reagent.

gene | DRSC id | induced reporter light, run 1, well a | induced reporter light, run 1, well b | control promoter light, run 1, well a | control promoter light, run 1, well b | uninduced reporter light, run 1, well a | activity call
CG3746 | DRSC04412 | 1.59e5 | 1.34e5 | 1.22e5 | 1.31e5 | 12025 | inactive
Ptr (Patched-related) | DRSC04852 | 1.88e5 | 1.91e5 | 2.18e5 | 1.86e5 | 14500 | inactive
CG32445 | DRSC11678 | 16615 | 11820 | 17180 | 16310 | 1120 | inactive
Vha16-4 + CG15614 | DRSC07321 | 98155 | 91430 | 1.39e5 | 1.51e5 | 7825 | inactive
Nnk (Nicknack) | DRSC15274 | 1.92e5 | 1.53e5 | 1.68e5 | 1.53e5 | 10600 | inactive
CAH13 (Carbonic anhydrase 13) | DRSC06128 | 1.92e5 | 1.83e5 | 2.26e5 | 2.16e5 | 16320 | inactive
Vmat (Vesicular monoamine transporter) | DRSC06961 | 1.78e5 | 1.80e5 | 1.72e5 | 1.55e5 | 13545 | inactive
Vmat (Vesicular monoamine transporter) | DRSC06962 | 91450 | 1.03e5 | 1.04e5 | 1.03e5 | 9010 | inactive
Phb2 (Prohibitin 2) | DRSC06512 | 95180 | 69670 | 1.39e5 | 1.33e5 | 7445 | inactive
beta3GalTII (beta-1,3-Galactosyltransferase II) | DRSC07253 | 1.51e5 | 1.65e5 | 2.01e5 | 1.70e5 | 12920 | inactive
cas (castor) | DRSC12373 | 1.08e5 | 1.32e5 | 1.17e5 | 1.07e5 | 8585 | inactive
CG3982 | DRSC10394 | 23580 | 23270 | 23275 | 19210 | 3150 | inactive

Continued (2 carried over from the part before).
gene | DRSC id | induced reporter light, run 1, well a | induced reporter light, run 1, well b | control promoter light, run 1, well a | control promoter light, run 1, well b | uninduced reporter light, run 1, well a | activity call
cas (castor) | DRSC12373 | 1.08e5 | 1.32e5 | 1.17e5 | 1.07e5 | 8585 | inactive
CG3982 | DRSC10394 | 23580 | 23270 | 23275 | 19210 | 3150 | inactive
Eaf6 (Esa1-associated factor 6) | DRSC09901 | 2.48e5 | 2.69e5 | 2.98e5 | 3.51e5 | 12660 | inactive
CG6766 | DRSC02991 | 1.42e5 | 1.44e5 | 1.53e5 | 1.55e5 | 10960 | inactive
CG32591 | DRSC19063 | 91095 | 96590 | 98770 | 91940 | 6960 | inactive
CG9853 | DRSC12343 | 94660 | 1.29e5 | 79270 | 65535 | 8110 | inactive
Tbcc (Tubulin-binding cofactor C) | DRSC00223 | 1.19e5 | 1.13e5 | 1.55e5 | 1.83e5 | 12740 | inactive
Stoml2 (Stomatin like 2) | DRSC04326 | 2.12e5 | 2.42e5 | 2.14e5 | 2.15e5 | 17345 | inactive
Ugt302C1 (UDP-glycosyltransferase family 302 member C1) | DRSC15353 | 1.06e5 | 1.35e5 | 80455 | 79340 | 9045 | inactive
CG30339 | DRSC05168 | 37860 | 46925 | 49135 | 53220 | 2305 | inactive
